Reference: patent US20250171762A1, “THERAPEUTICAL PEPTIDOMIMETIC” (UNIVERSITA' DEGLI STUDI DI ROMA "LA SAPIENZA", priority 2021, published 2025)
“Also recorded” adds a separate entry of the source. Part of at least one peptide drawing is inferred or uncertain, most often the ends.

Legend:
[1] = test system: m·8344A>G mt-tRNA^Lys mutant cybrids; assay: Respirometry assay, oxygen consumption rate, Clark type oxygen electrode; format: cell-based, human
[2] = test system: m·8344A>G mt-tRNA^Lys mutant cybrids; assay: Cell viability, Trypan blue dye exclusion, galactose vs glucose medium; format: cell-based, human; settings: 5 μM, 24 hours
[3] = test system: cybrids bearing the m·3243A>G mutation in mt-tRNA^Leu(UUR); assay: Fluorescence confocal microscopy of Cy5-linked constructs, uptake and mitochondrial co-localization; format: cell-based, human; settings: 0.25 μM, 24 hours, Mitotracker Red
Description: Top row (constructs): exogenously administered constructs covalently linked to a fluorescent dye (Cy5) are localized within cells.
Middle row (Mitotracker red): mitochondria within the same cells shown in the top row are highlighted by Mitotracker red, a dye able to link specifically and exclusively to mitochondria.
The cells used for the experiments are trans-mitochondrial hybrids (hereafter named cybrids) bearing the m·3243A>G mutation in mt-tRNA^Leu(UUR), which is associated with the MELAS syndrome.
Cells were incubated for 24 hours with 0.25 μM of constructs. Half an hour before imaging, cells were stained with Mitotracker Red. Finally, fluorescence signals were detected with a laser scanning confocal microscope. PCC: Pearson's Correlation Coefficient (mean±SEM of six images).
Constructs made of compounds listed in Table 1 linked to the Cy5 fluorophore via maleimide cross-linker, were administered to sub-confluent cybrid cell cultures at 0.25 μM in glucose medium. […] The fluorescence images were analyzed with the ImageJ software (14, https://imagej.nih.gov/ij/, 1997-2018) to determine the Pearson's correlation coefficient.
The uptake and localization of Cy5-conjugated constructs in cybrids was assessed by flow cytometry, confocal microscopy, and immunoblot analysis on isolated mitochondria (FIG. 1). […]

[4] = test system: m·3243A>G mt-tRNA^Leu(UUR) mutant cybrids; assay: Respirometry assay, oxygen consumption rate, Clark type oxygen electrode; format: cell-based, human
[5] = test system: m·3243A>G mt-tRNA^Leu(UUR) mutant cybrids; assay: Cell viability, Trypan blue dye exclusion, galactose vs glucose medium; format: cell-based, human; settings: for viability of mutant cybrids vs non treated mutant cells: galactose medium
Protocol: For viability assessment, cells were plated in either glucose or galactose medium. The reason for this is that a viability phenotype can be appreciated in cells growing on galactose, which forces cells to rely on mitochondrial respiration, but not in cells growing on glucose. After 24 hours incubation, the number of viable cells in the galactose medium was normalized to the number of viable cells in glucose at the same time point, which represents the normal growth condition. Data are compared with the value of mutant cells incubated with vehicle only. Mean±SEM of at least three independent experiments is shown.
For viability assessment, cells were plated in either glucose or galactose medium. The reason for this is that a viability phenotype can be appreciated in cells growing on galactose, which forces cells to rely on mitochondrial respiration, but not in cells growing on glucose. After 24 hours incubation the number of viable cells in galactose medium was normalized to the number of viable cells in glucose (that represents the normal growth condition) at the same time point. Data are compared with the value of mutant cells incubated with vehicle only. Means±SEM of at least two independent experiments are shown.
Previously established osteosarcoma derived (143B.TK-) cybrid cell lines from patients, which bear either the m·3243A>G mutation in mt-tRNA^Leu(UUR) or the m·8344A>G mutation in mt-tRNA^Lys, and controls were used (generous gift from Dr Valeria Tiranti and Dr Valerio Carelli).
Cybrid cells were cultured in Dulbecco's modified Eagle's medium (DMEM), supplemented with 4.5 g/l d-glucose, 10% foetal bovine serum (FBS), 2 mM I-glutamine, 50 μg/ML uridine, 100 U/mL penicillin, and […] (referred to as glucose medium) in a humidified atmosphere of 95% air and 5% CO2 at 37° C. For cell viability experiments, cells were grown either in glucose medium or in glucose-free DMEM, supplemented with 5 mM galactose, […] sodium pyruvate, and 10% FBS (referred to as galactose medium). The reason for using the latter medium is that a pathological phenotype can be appreciated in cells growing on galactose, which forces cells to rely on mitochondrial respiration, but not in cells growing on glucose.
[…] Cells were switched in glucose or galactose and after 24 hours cell viability was measured by the Trypan blue dye exclusion assay. Cells were harvested with 0.25% trypsin and 0.2% EDTA, washed, suspended in PBS in the presence of Trypan blue solution (Sigma-Aldrich) at 1:1 ratio and counted using a hemocytometer. The number of viable cells in galactose medium was expressed as a percentage of the number of cells in glucose medium. […]

mutant cells = settings: exogenously administered, Perli et al 2020; cited from earlier work
[6] = glucose medium, 36 hours of treatment

| SMILES | oxygen consumption rate vs vehicle mutant cells [1, 6] | oxygen consumption activity compared with β32_33 peptide ([1]; m·8344A>G mutant cybrids) | viability of mutant cybrids vs non treated mutant cells [2] | penetration of cell membranes and co-localization with mitochondria [3] | oxygen consumption rate vs vehicle mutant cells [4, 6] | oxygen consumption activity compared with β32_33 peptide ([4]; m·3243A>G mutant cybrids) | viability of mutant cybrids vs non treated mutant cells ([5]; 0.5 μM, 24 hours (FIG. 6)) | viability of mutant cybrids vs non treated mutant cells ([5]; 2 μM, 24 hours (FIG. 6)) | viability of mutant cybrids vs non treated mutant cells ([5]; 5 μM, 24 hours) | rescuing activity (viability) compared with β32_33 peptide ([5]; m·3243A>G and m·8344A>G mutant cybrids, 5 μM) | penetration of plasma and mitochondrial membranes (mutant cells) | rescuing activity on mutant cells (mutant cells) |
| --- | --- | --- | --- | --- | --- | --- | --- | --- | --- | --- | --- | --- |
| CC[C@@H](C)[C@@H](NC(=O)[C@@H](CC(C)C)NC(=O)[C@@H](C)NC(=O)[C@H](NC(=O)[C@@H](CCCNC(=N)N)NC(=O)[C@H]1CCCN1C(=O)[C@@H](CO)NC(=O)[C@@H](CC(C)C)NC(=O)[C@@H](Cc1ccccc1)NC(=O)[C@@H](CO)NC(=O)[C@@H](CCCCN)NC(=O)[C@H](N)CCCCN)[C@H](C)O)C(=O)N[C@H](CC(N)=O)C(=O)N[C@H](Cc1ccccc1)C(=O)N[C@H](CC(C)C)C(=O)N[C@@H](C(=O)O)C(C)C [PMT, d(K)d(K)d(S)d(F)d(L)d(S)d(P)d(R)d(T)d(A)d(L)d(I)d(N)d(F)d(L)d(V)] | significant increase | even higher than that of the β32_33 peptide | significant improvement | able to penetrate cell and mitochondrial membranes; also recorded: Penetrate Cell Membranes and Co-Localize with Mitochondria | significant increase | comparable to that of the β32_33 peptide | not | not | significant improvement; also recorded: exerted rescuing activity | comparable to that of the β32_33 peptide |  |  |
| CC[C@H](C)[C@H](NC(=O)[C@H](CC(C)C)NC(=O)[C@H](C)NC(=O)[C@@H](NC(=O)[C@H](CCCNC(=N)N)NC(=O)[C@@H]1CCCN1C(=O)[C@H](CO)NC(=O)[C@H](CC(C)C)NC(=O)[C@H](Cc1ccccc1)NC(=O)[C@H](CO)NC(=O)[C@H](CCCCN)NC(=O)[C@@H](N)CCCCN)[C@@H](C)O)C(=O)N[C@@H](CC(N)=O)C(=O)N[C@@H](Cc1ccccc1)C(=O)N[C@@H](CC(C)C)C(=O)N[C@H](C(=O)O)C(C)C [β32_33, KKSFLSPRTALINFLV, reference compound] |  |  |  |  |  |  |  |  |  |  | able per se to penetrate both the plasma and mitochondrial membranes | exert the rescuing activity |
